Consider one molecule from PMC8400830.

These are yes or no findings as the source states them, for the method shown. In cells and extracts the contact can be indirect. Some entries that bind do so weakly or less than the wild type.

The assay addresses heterogeneous nuclear ribonucleoprotein K (hnRNPK) (human (endogenous in CRC cell lines)) (UniProt P61978). Briefly: co-IP; IP/Co-IP Kit (Thermo Fisher Scientific), endogenous proteins in CRC cell lysates; cells with circ-GALNT16 knockdown or overexpression, SENP2 knockdown, with or without UV exposure (6 h).

B1: SUMO-specific peptidase 2 (SENP2) (enzyme, UniProt Q9HC62 1-589)
chain: MYRWLVRILGTIFRFCDRSVPPARALLKRRRSDSTLFSTVDTDEIPAKRPRLDCFIHQVKNSLYNAASLFGFPFQLTTKPMVTSACNGTRNVAPSGEVFSNSSSCELTGSGSWNNMLKLGNKSPNGISDYPKIRVTVTRDQPRRVLPSFGFTLNSEGCNRRPGGRRHSKGNPESSLMWKPQEQAVTEMISEESGKGLRRPHCTVEEGVQKEEREKYRKLLERLKESGHGNSVCPVTSNYHSSQRSQMDTLKTKGWGEEQNHGVKTTQFVPKQYRLVETRGPLCSLRSEKRCSKGKITDTETMVGIRFENESRRGYQLEPDLSEEVSARLRLGSGSNGLLRRKVSIIETKEKNCSGKERDRRTDDLLELTEDMEKEISNALGHGPQDEILSSAFKLRITRGDIQTLKNYHWLNDEVINFYMNLLVERNKKQGYPALHVFSTFFYPKLKSGGYQAVKRWTKGVNLFEQEIILVPIHRKVHWSLVVIDLRKKCLKYLDSMGQKGHRICEILLQYLQDESKTKRNSDLNLLEWTHHSMKPHEIPQQLNGSDCGMFTCKYADYISRDKPITFTQHQMPLFRKKMVWEILHQQLL
Consider B1, for which the binding result was “binds”.
